Some of the results follow. These are further read-outs of the screen, such as a control signal, another cell line or another target. No call is given for them. The list favours compounds with an active or inconclusive main result. Words in brackets tell the shape of the fitted curve; partial curves, single points and poor fits give uncertain potencies.
Assay: qHTS Assay for Lipid Storage Modulators in Drosophila S3 Cells;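 for cell number change: cells counted by Cell Tracker Red CMTPX staining in the red channel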
Conditions: BODIPY lipid droplet fluorescence, 18-24 h; for cell number change: measured here: cell count max response, cells fed with added oleic acid
Outline: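 Laser-scanning cytometry quantifies lipid droplet accumulation (500–530 nm total intensity; droplet/cell object ratio) in oleic acid-fed (400 uM added) Drosophila S3 cells treated with a concentration series. 20 uM Triacsin C defined 100% inhibition.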

[1] = measured here: cell number channel AC50, cells fed with added oleic acid
[2] = measured here: lipid fluorescence (Fed channel) AC50, cells fed with added oleic acid

Row | SMILES | cell number change [%] | AC50 [1] | AC50 [2]
1 | CCN(CC)S(=O)(=O)c1ccc(/C=C/C(=O)Nc2ccc(F)c(F)c2F)cc1 | -32.4 | 9.2 µM [falling, single point] | 0.00517 µM [falling, full curve, poor fit]
2 | CS(=O)(=O)N1CCN(c2ccccc2NC(=O)c2ccc3ccccc3c2)CC1 | -25.2 |  | 23.1 µM [falling, single point]
3 | CC(=O)Cc1nsc(NC(=O)c2ccco2)n1 | -4.77 |  | 32.6 µM [falling, single point]
4 | CCCN1CCC(NC(=O)Nc2ccc(Br)cc2)CC1 | -3.51 |  | 29.1 µM [rising, single point]
5 | O=c1c2ccc(Cl)cc2[nH]c(=S)n1Cc1cccnc1 | 33.5 |  | 
6 | C=C1CCC[C@]2(C)C[C@H]3OC(=O)C(CNC(C)CCCC(C)C)[C@H]3CC12 (some centres undefined) | -53.5 | 10.3 µM [falling, partial curve] | 16.4 µM [falling, partial curve]
7 | Cc1ccc(C2Nc3cccc4cccc(c34)N2)s1 | 22.6 |  | 1.84 µM [rising, partial curve, poor fit]
8 | COc1cc(NC(C)=O)c2ncccc2c1[N+](=O)[O-] | 23.2 |  | 8.2 µM [rising, partial curve]
9 | O=C(CC1C(=O)NCCN1C(=O)Nc1ccccc1)Nc1ccc(F)cc1 (centres undefined) | 17 | 0.00461 µM [falling, full curve, poor fit] | 
10 | O=C(CN1C2CCCC1CC(NC(=O)C1CCCCC1)C2)NCc1ccc(F)cc1 (centres undefined) | -16.2 |  | 14.6 µM [falling, single point]
11 | Cc1cccc(Nc2nc(N3CCN(C)CC3)nc(N)c2[N+](=O)[O-])c1 | 15.8 |  | 
12 | CC1=NOC(=O)/C1=C\c1ccccc1 | -21.1 |  | 0.184 µM [falling, full curve]
13 | Cc1cc(C)cc(C(=O)NN2CCN(C)CC2)c1 | 74.2 | 29.1 µM [rising, single point] | 29.1 µM [rising, single point]
14 | COC(=O)C(C(=O)OC)C(C)C(C(=O)OC)C(=O)OC | -40.9 | 29.1 µM [falling, partial curve, poor fit] | 4.61 µM [falling, partial curve, poor fit]
15 | COc1ccccc1NC(=O)CSc1nnc(-c2ccoc2C)n1CCc1ccccc1 | -7.45 |  | 0.92 µM [rising, single point]
16 | O=C(COn1nnc2ccc(Cl)cc21)NC12CC3CC(CC(C3)C1)C2 | -54.3 | 29.1 µM [falling, partial curve, poor fit] | 
17 | CN(C1=C(NC(=O)c2ccccc2)C(=O)c2ccccc2C1=O)C1CCS(=O)(=O)C1 (centres undefined) | 5.75 |  | 23.1 µM [falling, single point]
18 | O=C(/C=C/c1cccc2ccccc12)c1ccncc1 | -24.4 |  | 5.8 µM [falling, partial curve]
19 | Cc1ccccc1OCC(=O)NNC(=O)Nc1ccc(Cl)cc1 | -25.8 |  | 32.6 µM [falling, single point]
20 | Cn1cccc1CNC1CCCCC1 | -19.5 |  | 16.4 µM [falling, partial curve]
21 | Cc1ccc(CNC(=O)[C@@H](NC(=O)C2CCN(C(=O)[C@@H](N)CC(C)C)CC2)C(C)C)cc1 |  |  | 29.1 µM [rising, single point]
22 | CCCNC(=O)CCc1c(C)nc2nc(C)nn2c1C | -41.1 | 13 µM [falling, partial curve, poor fit] | 
23 | O=C1C=C(c2cccc(O)c2)C[C@@H](c2ccc(F)cc2)C1 | 6.79 |  | 
24 | CC(=O)Nc1cc(-c2nn3c(C)nnc3s2)ccc1C | 18 |  | 
25 | O=C(NCc1ccc2c(c1)OCO2)c1ccc(S(=O)(=O)NCC2CCCO2)cc1 (centres undefined) | 3.18 |  | 16.4 µM [rising, partial curve]
26 | CC(=O)Nc1ccc(S(=O)(=O)c2ccc(N)cc2)cc1 | -30.9 | 1.64 µM [falling, full curve, poor fit] | 4.61 µM [falling, full curve, poor fit]
27 | CCc1ccc(NC(=O)C2CCCN2c2nn3c(=O)cc(C)nc3s2)cc1 (centres undefined) | 6.05 |  | 6.51 µM [falling, single point]
28 | COCCNc1nc(N)c([N+](=O)[O-])c(N2CCCCCC2)n1 | -40.5 |  | 
29 | OCCSc1nncn1/N=C/c1c[nH]c2ccccc12 | 0.65 |  | 4.11 µM [rising, single point]
30 | CCOc1ccccc1NC(=O)c1cc(S(=O)(=O)N2CCC3(CC2)OCCO3)ccc1F | 4.47 | 0.082 µM [falling, full curve, poor fit] | 

Quoted at random: two entries already listed.
Row | SMILES | cell number change [%] | AC50 [1] | AC50 [2]
15 | COc1ccccc1NC(=O)CSc1nnc(-c2ccoc2C)n1CCc1ccccc1 | -7.45 |  | 0.92 µM [rising, single point]
8 | COc1cc(NC(C)=O)c2ncccc2c1[N+](=O)[O-] | 23.2 |  | 8.2 µM [rising, partial curve]
